# According to paper PMC8384837:
# This is one part of the list. Construct or isoform of the protein are uncertain.
# Target: T1, PUM1 PUF domain R5-PHQ R6-SWD C1007P + R1008H + N1043S + Y1044W + Q1047D (UniProt Q14671)
# T1 sequence: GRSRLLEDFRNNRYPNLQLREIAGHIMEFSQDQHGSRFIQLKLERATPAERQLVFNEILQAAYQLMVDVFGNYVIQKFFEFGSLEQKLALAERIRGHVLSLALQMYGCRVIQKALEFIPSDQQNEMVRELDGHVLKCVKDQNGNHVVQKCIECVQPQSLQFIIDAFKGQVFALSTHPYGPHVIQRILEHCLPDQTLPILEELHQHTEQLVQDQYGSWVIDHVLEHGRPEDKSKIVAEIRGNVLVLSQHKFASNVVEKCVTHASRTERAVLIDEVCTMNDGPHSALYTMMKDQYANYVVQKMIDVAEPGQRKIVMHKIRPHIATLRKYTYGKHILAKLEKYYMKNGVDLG
# Conditions: yeast three-hybrid, YBZ-1, SC-Leu-His + 0.5 mM 3-AT, 4 days
row,Sequence,binding signal (log2 enrichment (interaction score))
1,GGCUAGAACUAGUGGAUCCCCCGGCGCCCGGCGGCUCGAGCCCGGGUAAGUUCAGACAGUCUGCAUGCCGCCGGGCGCCAUGCCUGCAGGUCGACUCUAGAAAACAUG,< -7.43
2,GGCUAGAACUAGUGGAUCCCCCGGCGCCCGGCGGCUCGAGCCCGGGUAAGUGGUAGCAGUCUGCAUGCCGCCGGGCGCCAUGCCUGCAGGUCGACUCUAGAAAACAUG,-7.31
3,GGCUAGAACUAGUGGAUCCCCCGGCGCCCGGCGGCUCGAGCCCGGGUAAGUUGAAUAAGUCUGCAUGCCGCCGGGCGCCAUGCCUGCAGGUCGACUCUAGAAAACAUG,-7.42
4,GGCUAGAACUAGUGGAUCCCCCGGCGCCCGGCGGCUCGAGCCCGGGUAAGUGGAGCACGUCUGCAUGCCGCCGGGCGCCAUGCCUGCAGGUCGACUCUAGAAAACAUG,< -7.15
5,GGCUAGAACUAGUGGAUCCCCCGGCGCCCGGCGGCUCGAGCCCGGGUAAGUAGACACGGUCUGCAUGCCGCCGGGCGCCAUGCCUGCAGGUCGACUCUAGAAAACAUG,-7.6
6,GGCUAGAACUAGUGGAUCCCCCGGCGCCCGGCGGCUCGAGCCCGGGUAAGAUGAUAUCGUCUGCAUGCCGCCGGGCGCCAUGCCUGCAGGUCGACUCUAGAAAACAUG,< -7.54
7,GGCUAGAACUAGUGGAUCCCCCGGCGCCCGGCGGCUCGAGCCCGGGUAAGUUGAACAUGUCUGCAUGCCGCCGGGCGCCAUGCCUGCAGGUCGACUCUAGAAAACAUG,< -7.07
8,GGCUAGAACUAGUGGAUCCCCCGGCGCCCGGCGGCUCGAGCCCGGGUAAGAUUAAAUCGUCUGCAUGCCGCCGGGCGCCAUGCCUGCAGGUCGACUCUAGAAAACAUG,-7.66
9,GGCUAGAACUAGUGGAUCCCCCGGCGCCCGGCGGCUCGAGCCCGGGUAAGUUACUAUAGUCUGCAUGCCGCCGGGCGCCAUGCCUGCAGGUCGACUCUAGAAAACAUG,-7.22
10,GGCUAGAACUAGUGGAUCCCCCGGCGCCCGGCGGCUCGAGCCCGGGUAAGUAUACGUAGUCUGCAUGCCGCCGGGCGCCAUGCCUGCAGGUCGACUCUAGAAAACAUG,-7.77
11,GGCUAGAACUAGUGGAUCCCCCGGCGCCCGGCGGCUCGAGCCCGGGUAAGGUAAAACAGUCUGCAUGCCGCCGGGCGCCAUGCCUGCAGGUCGACUCUAGAAAACAUG,-8.54
12,GGCUAGAACUAGUGGAUCCCCCGGCGCCCGGCGGCUCGAGCCCGGGUAAGAGGCCAAAGUCUGCAUGCCGCCGGGCGCCAUGCCUGCAGGUCGACUCUAGAAAACAUG,-7.35
13,GGCUAGAACUAGUGGAUCCCCCGGCGCCCGGCGGCUCGAGCCCGGGUAAGUUGAAUAGGUCUGCAUGCCGCCGGGCGCCAUGCCUGCAGGUCGACUCUAGAAAACAUG,< -7.26
14,GGCUAGAACUAGUGGAUCCCCCGGCGCCCGGCGGCUCGAGCCCGGGUAAGUGGCCACUGUCUGCAUGCCGCCGGGCGCCAUGCCUGCAGGUCGACUCUAGAAAACAUG,-8.48
15,GGCUAGAACUAGUGGAUCCCCCGGCGCCCGGCGGCUCGAGCCCGGGUAAGUCGGAUUGGUCUGCAUGCCGCCGGGCGCCAUGCCUGCAGGUCGACUCUAGAAAACAUG,< -8.51
16,GGCUAGAACUAGUGGAUCCCCCGGCGCCCGGCGGCUCGAGCCCGGGUAAGAGCAAGCAGUCUGCAUGCCGCCGGGCGCCAUGCCUGCAGGUCGACUCUAGAAAACAUG,< -7.13
17,GGCUAGAACUAGUGGAUCCCCCGGCGCCCGGCGGCUCGAGCCCGGGUAAGUGGUCGAAGUCUGCAUGCCGCCGGGCGCCAUGCCUGCAGGUCGACUCUAGAAAACAUG,< -6.98
18,GGCUAGAACUAGUGGAUCCCCCGGCGCCCGGCGGCUCGAGCCCGGGUAAGUAUAGGUAGUCUGCAUGCCGCCGGGCGCCAUGCCUGCAGGUCGACUCUAGAAAACAUG,-7.2
19,GGCUAGAACUAGUGGAUCCCCCGGCGCCCGGCGGCUCGAGCCCGGGUAAGUUCAAUGAGUCUGCAUGCCGCCGGGCGCCAUGCCUGCAGGUCGACUCUAGAAAACAUG,-8.45
20,GGCUAGAACUAGUGGAUCCCCCGGCGCCCGGCGGCUCGAGCCCGGGUAAGUUGUAAUUGUCUGCAUGCCGCCGGGCGCCAUGCCUGCAGGUCGACUCUAGAAAACAUG,-7.04
21,GGCUAGAACUAGUGGAUCCCCCGGCGCCCGGCGGCUCGAGCCCGGGUAAGCAUAAAAUGUCUGCAUGCCGCCGGGCGCCAUGCCUGCAGGUCGACUCUAGAAAACAUG,< -7.72
22,GGCUAGAACUAGUGGAUCCCCCGGCGCCCGGCGGCUCGAGCCCGGGUAAGUUUGAUUAGUCUGCAUGCCGCCGGGCGCCAUGCCUGCAGGUCGACUCUAGAAAACAUG,< -7.27
23,GGCUAGAACUAGUGGAUCCCCCGGCGCCCGGCGGCUCGAGCCCGGGUAAGUGGACACAGUCUGCAUGCCGCCGGGCGCCAUGCCUGCAGGUCGACUCUAGAAAACAUG,< -7.78
24,GGCUAGAACUAGUGGAUCCCCCGGCGCCCGGCGGCUCGAGCCCGGGUAAGUUGAUAAGGUCUGCAUGCCGCCGGGCGCCAUGCCUGCAGGUCGACUCUAGAAAACAUG,-7.43
25,GGCUAGAACUAGUGGAUCCCCCGGCGCCCGGCGGCUCGAGCCCGGGUAAGUUGAAUGAGUCUGCAUGCCGCCGGGCGCCAUGCCUGCAGGUCGACUCUAGAAAACAUG,< -7.29

# A run of entries from further up, for reference:
row,Sequence,binding signal (log2 enrichment (interaction score))
10,GGCUAGAACUAGUGGAUCCCCCGGCGCCCGGCGGCUCGAGCCCGGGUAAGUAUACGUAGUCUGCAUGCCGCCGGGCGCCAUGCCUGCAGGUCGACUCUAGAAAACAUG,-7.77
11,GGCUAGAACUAGUGGAUCCCCCGGCGCCCGGCGGCUCGAGCCCGGGUAAGGUAAAACAGUCUGCAUGCCGCCGGGCGCCAUGCCUGCAGGUCGACUCUAGAAAACAUG,-8.54
